These are yes or no findings as the source states them, for the method shown. Binding calls can cover weak binding; strength is not graded here.
B1: recombinant placental bikunin (1-170) from baculovirus / Sf9 cells (protein)
chain: ADRERSIHDFCLVSKVVGRCRASMPRWWYNVTDGSCQLFVYGGCDGNSNNYLTKEECLKKCATVTENATGDLATSRNAADSSVPSAPRRQDSEDHSSDMFNYEEYCTANAVTGPCRASFPRWYFDVERNSCNNFIYGGCRGNKNSYRSEEACMLRCFRQQENPPLPLGSK
modifications: asparagine 30 silent in sequencing, consistent with glycosylation
B2: native human placental bikunin isolated from human placenta (protein)
chain: ADRERSIHDFCLVSKVVGRCRASMPRWWYNVTDGSCQLFVYGGCDGNSNNYLTKEECLKKCATVTENATGDLATSRNAADSSVPSAPRRQDSEDHSSDMFNYEEYCTANAVTGPCRASFPRWYFDVERNSCNNFIYGGCRGNKNSYRSEEACMLRCFRQQENPPLPLGSKVVVLAGAVS
modifications: asparagine 30 silent in sequencing, likely glycosylated

Tests used:
[1] = target: bovine pancreatic kallikrein (bovine); assay: affinity chromatography on kallikrein-Sepharose
[2] = target: bovine pancreatic kallikrein (bovine); assay: affinity chromatography on bovine pancreatic kallikrein-Sepharose

| Binder | binding [1] | binding [2] |
| --- | --- | --- |
| B1 | binds | – |
| B2 | – | binds |

Reference: patent EP1752538A1
